Experimental data as given in paper PMC5793433.
No constants are given. Whether binding was seen depends on the method and setting. In cells and extracts the contact can be indirect. Binding calls can cover weak binding; strength is not graded here.

Protein sequences, listed by entry. Tags and fused reporters are not part of them. Lines headed by an entry give the natural chain unless they say otherwise; changes in a name come on top.
UniProt U6KRN1: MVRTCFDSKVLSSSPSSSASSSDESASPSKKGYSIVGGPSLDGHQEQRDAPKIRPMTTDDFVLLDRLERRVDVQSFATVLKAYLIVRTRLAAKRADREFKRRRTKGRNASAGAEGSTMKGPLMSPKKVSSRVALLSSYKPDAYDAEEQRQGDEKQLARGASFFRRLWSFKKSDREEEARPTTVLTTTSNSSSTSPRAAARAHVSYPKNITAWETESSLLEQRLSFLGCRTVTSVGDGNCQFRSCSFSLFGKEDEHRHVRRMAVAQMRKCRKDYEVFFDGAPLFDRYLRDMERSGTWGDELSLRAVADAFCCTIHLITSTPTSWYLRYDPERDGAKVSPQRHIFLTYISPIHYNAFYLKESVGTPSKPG
UniProt A0A0A7DRF5: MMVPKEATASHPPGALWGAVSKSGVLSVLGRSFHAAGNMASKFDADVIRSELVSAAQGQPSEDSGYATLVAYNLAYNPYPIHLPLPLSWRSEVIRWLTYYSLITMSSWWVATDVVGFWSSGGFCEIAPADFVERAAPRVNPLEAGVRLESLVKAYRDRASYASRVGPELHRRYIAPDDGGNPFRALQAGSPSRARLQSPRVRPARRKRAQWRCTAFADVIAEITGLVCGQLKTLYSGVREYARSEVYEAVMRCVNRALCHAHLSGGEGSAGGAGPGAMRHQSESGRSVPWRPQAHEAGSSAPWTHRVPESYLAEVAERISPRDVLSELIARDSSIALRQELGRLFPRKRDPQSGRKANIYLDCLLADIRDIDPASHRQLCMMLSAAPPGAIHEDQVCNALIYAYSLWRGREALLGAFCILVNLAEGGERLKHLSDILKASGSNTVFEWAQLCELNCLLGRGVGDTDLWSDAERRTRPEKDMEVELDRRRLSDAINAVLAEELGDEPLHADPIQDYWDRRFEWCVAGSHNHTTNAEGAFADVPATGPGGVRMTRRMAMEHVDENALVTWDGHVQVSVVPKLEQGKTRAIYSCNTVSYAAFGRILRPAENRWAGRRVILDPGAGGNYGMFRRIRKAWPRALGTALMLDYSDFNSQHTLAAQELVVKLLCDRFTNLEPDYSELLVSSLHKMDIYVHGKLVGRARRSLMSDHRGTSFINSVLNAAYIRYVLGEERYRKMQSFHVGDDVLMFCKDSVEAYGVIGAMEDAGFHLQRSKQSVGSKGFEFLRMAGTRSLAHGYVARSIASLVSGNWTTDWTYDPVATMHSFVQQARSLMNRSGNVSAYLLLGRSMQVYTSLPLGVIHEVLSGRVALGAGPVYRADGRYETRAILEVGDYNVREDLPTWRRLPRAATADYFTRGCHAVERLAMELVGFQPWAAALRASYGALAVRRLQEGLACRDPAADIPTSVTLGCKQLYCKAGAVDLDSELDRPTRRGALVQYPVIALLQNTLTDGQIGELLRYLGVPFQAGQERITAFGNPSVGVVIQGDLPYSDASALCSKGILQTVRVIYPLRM

Tests used:
[1] = target: Hexa-His-tagged Etv-RDRP protein (Eimeria tenella RNA virus 1 (Etv)); assay: co-IP; Sf9 cells co-infected with baculoviruses for GST-OTU and His-RDRP, 48 h; lysate precipitated with anti-GST or with anti-His and protein A beads; washes with 500 mM NaCl, 1% NP40; Western blot with anti-GST and anti-His
[2] = target: GST-Et-OTU fusion protein (Eimeria tenella) (UniProt U6KRN1); assay: pull-down; purified GST-OTU on glutathione-Sepharose 4B beads; Hexa-His-tagged Etv-RDRP added, 4 °C for 4 h in lysis buffer (10 mM Tris-HCl pH 7.5, 150 mM NaCl, 1 mM EDTA, NP-40); washed with PBS; Western blot with anti-His
[3] = target: GST-Et-OTU fusion protein (Eimeria tenella) (UniProt U6KRN1); assay: pull-down; GST-OTU-Hexa-tagged-RDRP protein complex purified with glutathione-Sepharose 4B and analysed by Western blot
[4] = target: GST-Et-OTU fusion protein (Eimeria tenella) (UniProt U6KRN1); assay: co-IP; Sf9 cells co-infected with baculoviruses for GST-OTU and His-RDRP, 48 h; lysate precipitated with anti-GST or with anti-His and protein A beads; washes with 500 mM NaCl, 1% NP40; Western blot with anti-GST and anti-His

Row | Substance | binding [1] | binding [2] | binding [3] | binding [4]
1 | GST-Et-OTU fusion protein (from UniProt U6KRN1) (enzyme) | binds | – | – | –
2 | Hexa-His-tagged Etv-RDRP protein (from UniProt A0A0A7DRF5) | – | binds | binds | binds
